Measured values published in the supplement of paper PMC10849652.
The list shows a part of the results.

Protein sequences, listed by entry. Tags and fused reporters are not part of them. Lines headed by an entry give the natural chain unless they say otherwise; changes in a name come on top.
UniProt O75874, whole entry, looked up: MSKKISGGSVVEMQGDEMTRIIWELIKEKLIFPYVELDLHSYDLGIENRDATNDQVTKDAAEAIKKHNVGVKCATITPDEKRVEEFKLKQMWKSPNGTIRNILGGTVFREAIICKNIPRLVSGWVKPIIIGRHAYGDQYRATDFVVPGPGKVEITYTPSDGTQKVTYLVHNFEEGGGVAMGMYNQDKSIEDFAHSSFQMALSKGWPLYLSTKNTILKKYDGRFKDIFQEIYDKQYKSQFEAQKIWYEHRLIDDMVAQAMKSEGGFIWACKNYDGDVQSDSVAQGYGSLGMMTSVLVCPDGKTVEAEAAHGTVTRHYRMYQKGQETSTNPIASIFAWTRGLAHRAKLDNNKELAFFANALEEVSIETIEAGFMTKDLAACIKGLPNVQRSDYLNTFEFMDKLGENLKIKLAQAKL
UniProt P04792, whole entry, looked up: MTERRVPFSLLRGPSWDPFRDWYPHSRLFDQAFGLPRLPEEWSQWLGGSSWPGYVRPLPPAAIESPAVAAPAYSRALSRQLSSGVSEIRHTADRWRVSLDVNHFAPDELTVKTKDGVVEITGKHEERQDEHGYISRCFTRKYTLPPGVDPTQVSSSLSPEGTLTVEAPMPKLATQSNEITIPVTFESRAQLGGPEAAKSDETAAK
UniProt P13598: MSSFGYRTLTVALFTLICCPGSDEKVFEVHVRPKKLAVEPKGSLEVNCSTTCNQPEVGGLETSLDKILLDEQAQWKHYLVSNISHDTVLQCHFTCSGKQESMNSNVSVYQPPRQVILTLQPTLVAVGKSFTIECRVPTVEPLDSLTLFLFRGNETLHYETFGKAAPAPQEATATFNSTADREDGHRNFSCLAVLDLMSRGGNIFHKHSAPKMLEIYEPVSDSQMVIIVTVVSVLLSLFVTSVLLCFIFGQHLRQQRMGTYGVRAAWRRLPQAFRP
UniProt P32019: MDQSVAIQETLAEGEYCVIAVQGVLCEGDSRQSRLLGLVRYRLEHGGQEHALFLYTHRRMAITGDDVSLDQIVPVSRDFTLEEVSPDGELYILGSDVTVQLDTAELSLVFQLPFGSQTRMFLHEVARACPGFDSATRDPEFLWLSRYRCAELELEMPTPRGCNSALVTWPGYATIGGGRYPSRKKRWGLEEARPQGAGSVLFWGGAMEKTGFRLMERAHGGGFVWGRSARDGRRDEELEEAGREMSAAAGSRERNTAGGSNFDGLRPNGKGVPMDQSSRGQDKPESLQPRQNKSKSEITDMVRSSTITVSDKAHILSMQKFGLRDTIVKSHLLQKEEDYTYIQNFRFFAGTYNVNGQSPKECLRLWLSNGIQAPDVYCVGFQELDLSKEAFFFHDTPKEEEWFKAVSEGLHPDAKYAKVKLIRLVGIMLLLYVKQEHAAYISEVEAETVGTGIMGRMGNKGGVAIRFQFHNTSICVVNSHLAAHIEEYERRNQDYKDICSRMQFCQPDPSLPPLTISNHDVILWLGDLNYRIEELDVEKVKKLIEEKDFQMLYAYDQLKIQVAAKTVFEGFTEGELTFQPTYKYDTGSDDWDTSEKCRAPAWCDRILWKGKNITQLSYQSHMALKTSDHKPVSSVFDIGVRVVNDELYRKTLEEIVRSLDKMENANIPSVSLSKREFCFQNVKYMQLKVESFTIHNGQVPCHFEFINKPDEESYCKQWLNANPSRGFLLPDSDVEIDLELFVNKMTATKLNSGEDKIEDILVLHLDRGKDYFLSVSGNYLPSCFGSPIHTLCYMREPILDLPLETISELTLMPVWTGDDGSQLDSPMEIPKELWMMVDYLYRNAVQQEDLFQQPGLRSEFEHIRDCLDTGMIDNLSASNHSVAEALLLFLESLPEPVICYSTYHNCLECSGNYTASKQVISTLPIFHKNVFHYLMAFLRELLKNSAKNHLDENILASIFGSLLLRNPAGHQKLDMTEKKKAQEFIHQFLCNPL
UniProt Q70UQ0: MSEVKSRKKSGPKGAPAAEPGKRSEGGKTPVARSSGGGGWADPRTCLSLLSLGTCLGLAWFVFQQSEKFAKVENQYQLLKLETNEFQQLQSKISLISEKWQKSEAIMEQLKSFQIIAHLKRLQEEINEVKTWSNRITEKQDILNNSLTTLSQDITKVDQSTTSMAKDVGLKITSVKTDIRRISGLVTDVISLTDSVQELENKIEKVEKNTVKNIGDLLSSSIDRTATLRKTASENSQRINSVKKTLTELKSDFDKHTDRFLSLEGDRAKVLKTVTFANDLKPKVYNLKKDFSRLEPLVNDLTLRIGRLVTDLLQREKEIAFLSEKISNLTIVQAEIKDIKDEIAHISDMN
UniProt O00425, whole entry, looked up: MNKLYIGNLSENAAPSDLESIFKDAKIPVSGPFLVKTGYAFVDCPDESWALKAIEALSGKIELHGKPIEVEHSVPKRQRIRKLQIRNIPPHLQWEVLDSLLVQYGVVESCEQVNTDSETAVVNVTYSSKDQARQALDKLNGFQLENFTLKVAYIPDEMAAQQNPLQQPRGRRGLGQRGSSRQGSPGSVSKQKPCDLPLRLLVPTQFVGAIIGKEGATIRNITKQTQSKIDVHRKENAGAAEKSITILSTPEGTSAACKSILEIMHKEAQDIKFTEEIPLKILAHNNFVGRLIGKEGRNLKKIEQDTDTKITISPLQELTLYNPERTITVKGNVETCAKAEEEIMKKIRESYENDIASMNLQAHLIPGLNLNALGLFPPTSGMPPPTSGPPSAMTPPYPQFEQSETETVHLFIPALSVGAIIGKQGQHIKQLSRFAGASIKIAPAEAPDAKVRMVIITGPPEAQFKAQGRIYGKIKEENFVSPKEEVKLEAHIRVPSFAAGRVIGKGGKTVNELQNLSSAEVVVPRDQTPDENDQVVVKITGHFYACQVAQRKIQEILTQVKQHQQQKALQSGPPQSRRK
UniProt Q92598: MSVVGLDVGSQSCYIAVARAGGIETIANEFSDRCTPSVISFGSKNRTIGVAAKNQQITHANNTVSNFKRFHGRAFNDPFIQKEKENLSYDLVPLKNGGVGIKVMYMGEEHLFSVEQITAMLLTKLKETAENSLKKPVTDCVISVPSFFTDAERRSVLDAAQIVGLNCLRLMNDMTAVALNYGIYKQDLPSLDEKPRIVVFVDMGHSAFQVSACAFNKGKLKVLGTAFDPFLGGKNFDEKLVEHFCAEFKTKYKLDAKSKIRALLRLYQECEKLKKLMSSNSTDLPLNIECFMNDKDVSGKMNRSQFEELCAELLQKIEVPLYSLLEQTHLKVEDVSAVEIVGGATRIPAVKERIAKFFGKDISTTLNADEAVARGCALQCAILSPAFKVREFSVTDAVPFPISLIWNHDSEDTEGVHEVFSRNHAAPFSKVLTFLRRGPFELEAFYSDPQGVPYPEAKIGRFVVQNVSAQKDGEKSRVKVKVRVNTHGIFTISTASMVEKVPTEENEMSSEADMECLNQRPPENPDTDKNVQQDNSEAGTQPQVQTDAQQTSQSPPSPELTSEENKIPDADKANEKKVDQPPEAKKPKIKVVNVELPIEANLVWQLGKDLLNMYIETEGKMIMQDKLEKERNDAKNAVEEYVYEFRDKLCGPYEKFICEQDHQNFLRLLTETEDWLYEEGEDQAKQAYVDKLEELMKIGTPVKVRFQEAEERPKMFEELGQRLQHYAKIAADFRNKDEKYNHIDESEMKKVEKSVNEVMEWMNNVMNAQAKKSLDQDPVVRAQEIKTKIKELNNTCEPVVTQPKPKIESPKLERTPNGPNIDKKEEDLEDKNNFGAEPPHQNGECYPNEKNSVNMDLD
UniProt Q9NX62: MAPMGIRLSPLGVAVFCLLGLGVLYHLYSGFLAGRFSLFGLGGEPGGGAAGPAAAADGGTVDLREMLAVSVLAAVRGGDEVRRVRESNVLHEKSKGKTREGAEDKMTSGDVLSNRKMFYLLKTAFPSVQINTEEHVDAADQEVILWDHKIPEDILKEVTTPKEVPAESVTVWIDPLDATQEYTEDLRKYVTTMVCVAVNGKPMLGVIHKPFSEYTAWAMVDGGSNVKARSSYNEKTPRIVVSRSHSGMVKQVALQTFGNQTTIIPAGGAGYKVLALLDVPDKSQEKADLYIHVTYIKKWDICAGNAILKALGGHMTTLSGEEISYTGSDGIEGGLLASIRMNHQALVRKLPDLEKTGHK
UniProt Q9NV31: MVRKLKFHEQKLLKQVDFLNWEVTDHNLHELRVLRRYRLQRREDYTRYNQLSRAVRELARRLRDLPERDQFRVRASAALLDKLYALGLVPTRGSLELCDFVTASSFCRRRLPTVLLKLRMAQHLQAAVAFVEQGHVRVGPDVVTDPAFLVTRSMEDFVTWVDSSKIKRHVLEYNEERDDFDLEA
UniProt P05362: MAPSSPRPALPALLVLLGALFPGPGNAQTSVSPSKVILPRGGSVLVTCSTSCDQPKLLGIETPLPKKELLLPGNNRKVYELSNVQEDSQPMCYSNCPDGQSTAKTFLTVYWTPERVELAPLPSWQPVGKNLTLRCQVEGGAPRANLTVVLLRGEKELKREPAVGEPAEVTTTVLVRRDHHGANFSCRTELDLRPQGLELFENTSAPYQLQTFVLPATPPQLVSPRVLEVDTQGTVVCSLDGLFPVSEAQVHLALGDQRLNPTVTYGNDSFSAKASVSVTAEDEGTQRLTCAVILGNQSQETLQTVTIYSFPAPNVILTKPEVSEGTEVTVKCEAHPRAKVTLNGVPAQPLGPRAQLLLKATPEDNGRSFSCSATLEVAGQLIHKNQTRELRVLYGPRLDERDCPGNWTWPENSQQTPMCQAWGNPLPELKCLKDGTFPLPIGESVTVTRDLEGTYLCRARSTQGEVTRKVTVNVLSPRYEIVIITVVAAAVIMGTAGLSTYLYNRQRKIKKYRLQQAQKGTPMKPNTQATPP
UniProt Q9Y547: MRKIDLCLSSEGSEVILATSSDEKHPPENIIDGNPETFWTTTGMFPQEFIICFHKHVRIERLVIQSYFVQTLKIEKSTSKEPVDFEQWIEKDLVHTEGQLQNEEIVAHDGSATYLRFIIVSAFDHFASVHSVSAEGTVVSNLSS
UniProt Q27J81, whole entry, looked up: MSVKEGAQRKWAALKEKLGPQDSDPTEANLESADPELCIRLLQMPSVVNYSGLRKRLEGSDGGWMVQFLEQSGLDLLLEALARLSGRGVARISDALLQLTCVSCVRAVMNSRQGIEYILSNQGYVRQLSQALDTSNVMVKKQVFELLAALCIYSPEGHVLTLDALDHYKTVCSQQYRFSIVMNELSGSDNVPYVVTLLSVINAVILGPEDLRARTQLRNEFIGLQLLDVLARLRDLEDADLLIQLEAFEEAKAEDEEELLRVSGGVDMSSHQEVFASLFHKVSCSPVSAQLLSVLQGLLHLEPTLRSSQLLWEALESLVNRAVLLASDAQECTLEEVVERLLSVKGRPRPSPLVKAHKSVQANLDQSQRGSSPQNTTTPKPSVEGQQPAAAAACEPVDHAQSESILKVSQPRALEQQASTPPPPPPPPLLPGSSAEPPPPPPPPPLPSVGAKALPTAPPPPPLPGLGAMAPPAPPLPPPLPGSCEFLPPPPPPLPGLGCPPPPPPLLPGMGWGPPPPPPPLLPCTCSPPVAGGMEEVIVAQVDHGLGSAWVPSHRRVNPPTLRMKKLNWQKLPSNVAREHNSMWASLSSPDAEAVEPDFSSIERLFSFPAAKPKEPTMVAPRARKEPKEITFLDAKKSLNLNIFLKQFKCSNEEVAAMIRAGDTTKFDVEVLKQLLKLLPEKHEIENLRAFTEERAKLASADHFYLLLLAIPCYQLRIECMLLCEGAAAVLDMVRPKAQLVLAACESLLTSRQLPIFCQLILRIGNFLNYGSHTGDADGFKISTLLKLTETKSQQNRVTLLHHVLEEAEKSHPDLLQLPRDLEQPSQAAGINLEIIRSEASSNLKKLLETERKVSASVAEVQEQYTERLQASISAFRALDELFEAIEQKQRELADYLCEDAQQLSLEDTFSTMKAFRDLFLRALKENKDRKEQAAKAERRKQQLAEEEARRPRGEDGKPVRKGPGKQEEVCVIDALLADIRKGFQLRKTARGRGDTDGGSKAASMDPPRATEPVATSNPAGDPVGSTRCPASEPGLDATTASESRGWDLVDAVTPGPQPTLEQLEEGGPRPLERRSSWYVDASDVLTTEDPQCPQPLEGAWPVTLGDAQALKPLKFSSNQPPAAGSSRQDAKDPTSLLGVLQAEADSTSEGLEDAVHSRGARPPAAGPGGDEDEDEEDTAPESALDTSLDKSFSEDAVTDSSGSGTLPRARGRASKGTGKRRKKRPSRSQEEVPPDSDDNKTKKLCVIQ
UniProt P49441: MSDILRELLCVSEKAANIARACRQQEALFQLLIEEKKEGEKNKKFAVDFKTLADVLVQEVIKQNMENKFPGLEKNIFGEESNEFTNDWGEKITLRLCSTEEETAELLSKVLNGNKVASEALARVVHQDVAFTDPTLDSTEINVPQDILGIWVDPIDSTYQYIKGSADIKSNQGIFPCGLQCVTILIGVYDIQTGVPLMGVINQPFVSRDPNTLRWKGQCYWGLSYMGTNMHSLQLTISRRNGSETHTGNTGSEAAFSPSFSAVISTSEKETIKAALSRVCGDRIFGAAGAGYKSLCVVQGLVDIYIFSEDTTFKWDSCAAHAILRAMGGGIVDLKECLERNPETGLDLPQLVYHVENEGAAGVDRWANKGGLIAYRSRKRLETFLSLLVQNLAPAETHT

Assays:
Assay in all cases: log2 fold change, soluble protein after heating vs DMSO (PISA); higher = thermal stabilisation; K562 lysate, 10 uM; active = over 0.2 and 3.5 SD of the protein, either way, in both replicates (recomputed)
erlotinib = compound: C#Cc1cccc(Nc2ncnc3cc(OCCOC)c(OCCOC)cc23)c1 [erlotinib]
Outline: (§1)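 Pellets of K562 cells were dounce-homogenised in PBS pH 7.4 with 1 mM MgCl2, and the crude extract was held at 1 mg/mL protein for a 30 min treatment with 10 μM compound. Aliquots were heated for 3 min over 48°C-58°C and pooled before NP-40 was added to 0.5% at 4°C. The supernatant from 21,000xg for 90 min was quantified by TMTpro 16plex LC-MS/MS with channel sums equalised. Values are reported from duplicates as log-two fold change in thermal stability relative to solvent controls.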

[1] = compound: C/C(=N\NC(=O)C1=CC(=CC=C1)S(=O)(=O)N2CCOCC2)/C3=C(C=CC(=C3)Cl)O
Outline: as §1

[2] = compound: C1=CC(=CC=C1C2=NC3=C(N2)C=C(C=C3)C(=O)N)OC4=CC=C(C=C4)Cl
Outline: as §1

[3] = compound: C1=CC2=C(C=CC(=C2)/C=C\3/C(=O)NC(=NCC4=CC=CS4)S3)N=C1
Outline: as §1

[4] = compound: C1=CC2=NC=CN=C2C=C1/C=C/3\C(=O)NC(=O)S3
Outline: as §1

[5] = compound: C1=CC=C(C=C1)C2=NC(=C(N2)C3=CC=NC=C3)C4=CC(=C(C=C4)Cl)O
Outline: as §1

[6] = compound: C1=CC=C2C(=C1)C3=NNC4=CC=CC(=C43)C2=O
Outline: as §1

[7] = compound: C1CCN(C1)C(=O)NC2=CC=CC(=C2)NC3=NC=C(C(=N3)NCCC4=CN=CN4)Br
Outline: as §1

[8] = compound: C1CN(CCC1(CC2=CC=C(C=C2)Cl)N)C3=NC=NC4=C3C=CN4
Outline: as §1

IRAK-1-4 Inhibitor I = compound: C1COCCN1CCN2C3=CC=CC=C3N=C2NC(=O)C4=CC(=CC=C4)[N+](=O)[O-] [IRAK-1-4 Inhibitor I]
Outline: as §1

Measured: log2 fold change

IDH1 (UniProt O75874)
inactive: erlotinib 0.032 | [1] 0.045 | [2] 0.017 | [3] 0.046 | [4] 0.014 | [5] -0.019 | [6] 0.016 | [7] 0.005 | [8] 0.024 | IRAK-1-4 Inhibitor I 0.005

IGSF3 (UniProt O75054)
inactive: erlotinib -0.015 | [1] -0.043 | [2] -0.015 | [3] 0.057 | [4] 0.038 | [5] -0.009 | [6] -0.002 | [7] -0.017 | [8] -0.011 | IRAK-1-4 Inhibitor I 0.03

HSPB1 (UniProt P04792)
inactive: erlotinib 0.004 | [1] -0.03 | [2] 0.03 | [3] -0.012 | [4] 0.001 | [5] -0.009 | [6] 0.034 | [7] -0.013 | [8] -0.025 | IRAK-1-4 Inhibitor I 0.006

Reprinted at random: two entries already listed, in no set order.
HSPB1 (UniProt P04792)
inactive: erlotinib 0.004 | [1] -0.03 | [2] 0.03 | [3] -0.012 | [4] 0.001 | [5] -0.009 | [6] 0.034 | [7] -0.013 | [8] -0.025 | IRAK-1-4 Inhibitor I 0.006

IDH1 (UniProt O75874)
inactive: erlotinib 0.032 | [1] 0.045 | [2] 0.017 | [3] 0.046 | [4] 0.014 | [5] -0.019 | [6] 0.016 | [7] 0.005 | [8] 0.024 | IRAK-1-4 Inhibitor I 0.005

(continued)

ICAM2 (UniProt P13598)
inactive: erlotinib 0.004 | [1] -0.022 | [2] 0.023 | [3] -0.029 | [4] -0.01 | [5] -0.011 | [6] 0.021 | [7] 0.032 | [8] 0.005 | IRAK-1-4 Inhibitor I 0.061

ILF2 (UniProt Q12905)
inactive: erlotinib -0.006 | [1] -0.101 | [2] 0.001 | [3] 0.004 | [4] -0.001 | [5] 0.005 | [6] -0.002 | [7] 0 | [8] 0.016 | IRAK-1-4 Inhibitor I 0.006

INTS10 (UniProt Q9NVR2)
inactive: erlotinib 0.008 | [1] 0.056 | [2] -0.001 | [3] 0.061 | [4] -0.044 | [5] 0.026 | [6] -0.061 | [7] -0.006 | [8] 0.044 | IRAK-1-4 Inhibitor I -0.004

INPP5A (UniProt Q14642)
inactive: erlotinib 0.001 | [1] 0.055 | [2] 0.042 | [3] -0.096 | [4] -0.14 | [5] -0.014 | [6] -0.04 | [7] 0.148 | [8] -0.319 | IRAK-1-4 Inhibitor I -0.144

HSPA9 (UniProt P38646)
inactive: erlotinib -0.037 | [1] -0.009 | [2] 0.007 | [3] -0.018 | [4] -0.041 | [5] 0.003 | [6] -0.015 | [7] -0.007 | [8] -0.002 | IRAK-1-4 Inhibitor I -0.02

IMPDH1 isoform 6 (UniProt P20839)
inactive: erlotinib 0.018 | [1] 0.036 | [2] -0.031 | [3] 0.009 | [4] -0.001 | [5] -0.001 | [6] 0.017 | [7] 0.028 | [8] 0.032 | IRAK-1-4 Inhibitor I 0.003

ILRUN (UniProt Q9H6K1)
inactive: erlotinib -0.004 | [1] 0.056 | [2] 0.004 | [3] -0.018 | [4] 0.016 | [5] 0.018 | [6] 0.011 | [7] 0.006 | [8] 0.033 | IRAK-1-4 Inhibitor I 0.02

IFI35 isoform 2 (UniProt P80217)
inactive: erlotinib -0.009 | [1] -0.009 | [2] 0.023 | [3] -0.017 | [4] -0.014 | [5] -0.022 | [6] 0.016 | [7] 0.007 | [8] 0.017 | IRAK-1-4 Inhibitor I 0.026

HUWE1 (UniProt Q7Z6Z7)
inactive: erlotinib -0.005 | [1] -0.012 | [2] 0.007 | [3] -0.007 | [4] 0.002 | [5] -0.009 | [6] -0.003 | [7] 0.001 | [8] 0.008 | IRAK-1-4 Inhibitor I 0.005

INPP5B (UniProt P32019)
inactive: erlotinib 0.021 | [1] 0.02 | [2] -0.004 | [3] 0.017 | [4] -0.01 | [5] 0.004 | [6] -0.034 | [7] -0.025 | [8] 0.029 | IRAK-1-4 Inhibitor I 0.025

IKBIP isoform 4 (UniProt Q70UQ0)
inactive: erlotinib -0.008 | [1] 0.01 | [2] 0 | [3] 0.026 | [4] -0.02 | [5] 0 | [6] -0.032 | [7] 0.02 | [8] 0.016 | IRAK-1-4 Inhibitor I 0.014

IGF2BP3 (UniProt O00425)
inactive: erlotinib 0.04 | [1] 0.023 | [2] -0.007 | [3] 0.003 | [4] 0.005 | [5] 0.024 | [6] -0.067 | [7] 0.026 | [8] 0 | IRAK-1-4 Inhibitor I -0.018

HSPH1 (UniProt Q92598)
inactive: erlotinib -0.008 | [1] -0.026 | [2] 0.003 | [3] 0.009 | [4] -0.027 | [5] -0.009 | [6] -0.035 | [7] -0.004 | [8] -0.012 | IRAK-1-4 Inhibitor I -0.029

IGBP1 (UniProt P78318)
inactive: erlotinib -0.021 | [1] 0.05 | [2] 0.03 | [3] 0.016 | [4] -0.037 | [5] 0.016 | [6] -0.011 | [7] 0.007 | [8] 0.004 | IRAK-1-4 Inhibitor I 0.006

IMPAD1 (UniProt Q9NX62)
inactive: erlotinib -0.032 | [1] 0.002 | [2] 0.028 | [3] 0.017 | [4] 0.025 | [5] -0.007 | [6] -0.027 | [7] 0.019 | [8] -0.006 | IRAK-1-4 Inhibitor I -0.023

IBA57 (UniProt Q5T440)
inactive: erlotinib -0.049 | [1] -0.036 | [2] 0.02 | [3] -0.009 | [4] -0.015 | [5] -0.019 | [6] -0.002 | [7] 0.007 | [8] -0.029 | IRAK-1-4 Inhibitor I -0.007

HSPA8 (UniProt E9PK54)
inactive: erlotinib 0.045 | [1] -0.222 | [2] -0.045 | [3] -0.099 | [4] 0.014 | [5] -0.044 | [6] 0 | [7] -0.043 | [8] -0.008 | IRAK-1-4 Inhibitor I -0.141

HUS1 (UniProt O60921)
inactive: erlotinib 0.023 | [1] 0.005 | [2] 0.04 | [3] 0.006 | [4] 0.024 | [5] -0.027 | [6] -0.018 | [7] 0.006 | [8] -0.016 | IRAK-1-4 Inhibitor I 0.011

IMP3 (UniProt Q9NV31)
inactive: erlotinib -0.008 | [1] -0.109 | [2] 0.121 | [3] -0.082 | [4] 0.034 | [5] -0.006 | [6] -0.093 | [7] -0.03 | [8] 0.063 | IRAK-1-4 Inhibitor I 0.158

IGF2BP2 (UniProt Q9Y6M1)
inactive: erlotinib 0.022 | [1] 0.049 | [2] -0.041 | [3] -0.032 | [4] 0.031 | [5] 0 | [6] -0.08 | [7] -0.023 | [8] 0.051 | IRAK-1-4 Inhibitor I -0.022

IFT80 isoform 3 (UniProt Q9P2H3)
inactive: erlotinib -0.009 | [1] -0.077 | [2] 0.009 | [3] -0.054 | [4] 0.106 | [5] -0.06 | [6] -0.099 | [7] -0.009 | [8] 0.045 | IRAK-1-4 Inhibitor I -0.048

IKBKG isoform 2 (UniProt Q9Y6K9)
inactive: erlotinib -0.035 | [1] -0.007 | [2] 0.019 | [3] -0.059 | [4] -0.006 | [5] -0.047 | [6] -0.011 | [7] -0.007 | [8] 0.036 | IRAK-1-4 Inhibitor I -0.02

IDE, A0A3B3ISG5
inactive: erlotinib -0.013 | [1] -0.008 | [2] 0.015 | [3] -0.001 | [4] 0.001 | [5] 0.003 | [6] 0.001 | [7] 0.005 | [8] -0.009 | IRAK-1-4 Inhibitor I -0.004

ICAM1 (UniProt P05362)
inactive: erlotinib -0.025 | [1] -0.016 | [2] 0.036 | [3] 0.002 | [4] -0.016 | [5] 0.018 | [6] -0.017 | [7] 0.03 | [8] 0.024 | IRAK-1-4 Inhibitor I 0.026

HSPB11 (UniProt Q9Y547)
inactive: erlotinib -0.028 | [1] 0.032 | [2] 0.007 | [3] -0.033 | [4] -0.022 | [5] -0.002 | [6] -0.055 | [7] 0.008 | [8] 0.086 | IRAK-1-4 Inhibitor I 0.027

INF2 (UniProt Q27J81)
inactive: erlotinib 0.004 | [1] -0.014 | [2] -0.027 | [3] 0.069 | [4] 0.004 | [5] -0.024 | [6] -0.019 | [7] 0.031 | [8] 0.056 | IRAK-1-4 Inhibitor I -0.011

INPP1 (UniProt P49441)
inactive: erlotinib -0.03 | [1] -0.045 | [2] -0.018 | [3] 0.049 | [4] 0.053 | [5] 0.007 | [6] -0.088 | [7] 0.028 | [8] 0.02 | IRAK-1-4 Inhibitor I -0.021
